Data: the supplement of paper PMC12823440, “Inhibitors supercharge kinase turnover through native proteolytic circuits” (Nature, 2025)
The list shows a part of the results. Hit calls seldom repeat between salt and free forms of one compound.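 Kinases were expressed as nanoluciferase fusions in K562 cells and luminescence was read every 4 h between 2 and 18 h as percent of control, DMSO set to 100% and a positive control to 0%. A time point counts as decreased when the signal drops significantly (2 sigma). The hit call is the authors' own, does not follow from the count of time points alone, and its rule is not shown.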

Protein sequences, listed by entry. Tags and fused reporters are not part of them. Lines headed by an entry give the natural chain unless they say otherwise; changes in a name come on top.
UniProt P50613: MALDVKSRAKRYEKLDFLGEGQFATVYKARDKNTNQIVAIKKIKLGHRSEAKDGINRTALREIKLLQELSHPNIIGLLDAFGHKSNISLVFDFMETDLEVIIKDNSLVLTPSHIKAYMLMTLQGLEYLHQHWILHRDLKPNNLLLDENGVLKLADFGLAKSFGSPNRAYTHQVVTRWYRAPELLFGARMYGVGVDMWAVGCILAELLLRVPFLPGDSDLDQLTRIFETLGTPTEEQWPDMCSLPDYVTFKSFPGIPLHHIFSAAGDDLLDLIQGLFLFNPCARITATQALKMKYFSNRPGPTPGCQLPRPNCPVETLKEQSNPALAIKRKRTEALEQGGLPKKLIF
UniProt P50750, whole entry: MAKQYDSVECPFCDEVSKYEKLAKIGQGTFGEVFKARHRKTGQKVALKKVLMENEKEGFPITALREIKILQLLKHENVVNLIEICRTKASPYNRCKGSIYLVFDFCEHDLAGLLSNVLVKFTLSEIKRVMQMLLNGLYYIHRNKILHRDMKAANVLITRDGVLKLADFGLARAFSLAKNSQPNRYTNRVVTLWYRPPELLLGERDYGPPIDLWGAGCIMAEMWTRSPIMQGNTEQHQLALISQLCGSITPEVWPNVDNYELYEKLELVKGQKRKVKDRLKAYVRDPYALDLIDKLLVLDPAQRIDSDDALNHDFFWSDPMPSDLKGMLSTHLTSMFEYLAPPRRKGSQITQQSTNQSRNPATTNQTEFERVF
UniProt O96017, whole entry: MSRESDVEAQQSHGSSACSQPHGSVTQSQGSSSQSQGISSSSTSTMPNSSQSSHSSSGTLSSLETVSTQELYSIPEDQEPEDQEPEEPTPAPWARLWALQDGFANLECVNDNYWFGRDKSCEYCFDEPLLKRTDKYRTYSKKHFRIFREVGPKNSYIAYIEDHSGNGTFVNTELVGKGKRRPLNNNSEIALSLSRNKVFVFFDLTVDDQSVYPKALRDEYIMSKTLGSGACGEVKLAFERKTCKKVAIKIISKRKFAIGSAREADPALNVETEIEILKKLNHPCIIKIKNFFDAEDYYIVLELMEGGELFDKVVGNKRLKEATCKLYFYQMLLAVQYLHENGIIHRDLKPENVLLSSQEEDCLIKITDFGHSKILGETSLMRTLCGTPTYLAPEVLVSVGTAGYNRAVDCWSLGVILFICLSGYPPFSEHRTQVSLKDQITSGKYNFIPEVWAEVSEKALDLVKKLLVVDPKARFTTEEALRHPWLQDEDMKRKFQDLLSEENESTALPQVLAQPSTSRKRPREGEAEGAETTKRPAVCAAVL
UniProt P41240: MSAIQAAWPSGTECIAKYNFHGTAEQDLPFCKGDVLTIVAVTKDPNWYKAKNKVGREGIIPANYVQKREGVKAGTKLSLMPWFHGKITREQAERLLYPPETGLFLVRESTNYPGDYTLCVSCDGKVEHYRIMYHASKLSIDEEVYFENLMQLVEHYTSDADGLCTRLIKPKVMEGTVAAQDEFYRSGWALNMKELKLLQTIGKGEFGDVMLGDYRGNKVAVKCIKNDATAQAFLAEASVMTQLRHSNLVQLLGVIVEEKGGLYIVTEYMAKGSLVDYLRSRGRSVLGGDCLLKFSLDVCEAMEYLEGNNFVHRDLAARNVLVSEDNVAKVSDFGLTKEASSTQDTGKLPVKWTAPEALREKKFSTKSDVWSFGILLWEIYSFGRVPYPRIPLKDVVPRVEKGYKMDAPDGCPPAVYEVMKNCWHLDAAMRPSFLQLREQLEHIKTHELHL
UniProt P48729: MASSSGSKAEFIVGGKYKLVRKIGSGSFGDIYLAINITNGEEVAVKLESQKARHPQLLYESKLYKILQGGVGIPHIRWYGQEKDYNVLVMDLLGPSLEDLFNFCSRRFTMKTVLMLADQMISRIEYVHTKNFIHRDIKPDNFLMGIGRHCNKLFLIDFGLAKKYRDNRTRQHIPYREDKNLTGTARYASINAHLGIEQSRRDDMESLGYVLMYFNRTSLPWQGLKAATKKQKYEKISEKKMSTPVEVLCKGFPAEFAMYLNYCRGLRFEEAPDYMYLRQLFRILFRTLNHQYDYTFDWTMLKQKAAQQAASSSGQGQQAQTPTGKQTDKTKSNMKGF
UniProt P48730: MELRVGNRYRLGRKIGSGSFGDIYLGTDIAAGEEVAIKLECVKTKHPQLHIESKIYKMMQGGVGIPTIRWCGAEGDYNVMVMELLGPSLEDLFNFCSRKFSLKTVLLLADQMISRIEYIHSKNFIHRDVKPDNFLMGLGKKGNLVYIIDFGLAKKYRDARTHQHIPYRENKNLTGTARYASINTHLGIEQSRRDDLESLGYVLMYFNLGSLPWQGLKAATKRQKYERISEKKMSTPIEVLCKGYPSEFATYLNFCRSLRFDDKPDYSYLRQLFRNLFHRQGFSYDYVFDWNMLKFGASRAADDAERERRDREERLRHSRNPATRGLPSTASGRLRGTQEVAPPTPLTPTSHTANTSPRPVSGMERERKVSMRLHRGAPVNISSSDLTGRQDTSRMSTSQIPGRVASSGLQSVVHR
UniProt Q08345: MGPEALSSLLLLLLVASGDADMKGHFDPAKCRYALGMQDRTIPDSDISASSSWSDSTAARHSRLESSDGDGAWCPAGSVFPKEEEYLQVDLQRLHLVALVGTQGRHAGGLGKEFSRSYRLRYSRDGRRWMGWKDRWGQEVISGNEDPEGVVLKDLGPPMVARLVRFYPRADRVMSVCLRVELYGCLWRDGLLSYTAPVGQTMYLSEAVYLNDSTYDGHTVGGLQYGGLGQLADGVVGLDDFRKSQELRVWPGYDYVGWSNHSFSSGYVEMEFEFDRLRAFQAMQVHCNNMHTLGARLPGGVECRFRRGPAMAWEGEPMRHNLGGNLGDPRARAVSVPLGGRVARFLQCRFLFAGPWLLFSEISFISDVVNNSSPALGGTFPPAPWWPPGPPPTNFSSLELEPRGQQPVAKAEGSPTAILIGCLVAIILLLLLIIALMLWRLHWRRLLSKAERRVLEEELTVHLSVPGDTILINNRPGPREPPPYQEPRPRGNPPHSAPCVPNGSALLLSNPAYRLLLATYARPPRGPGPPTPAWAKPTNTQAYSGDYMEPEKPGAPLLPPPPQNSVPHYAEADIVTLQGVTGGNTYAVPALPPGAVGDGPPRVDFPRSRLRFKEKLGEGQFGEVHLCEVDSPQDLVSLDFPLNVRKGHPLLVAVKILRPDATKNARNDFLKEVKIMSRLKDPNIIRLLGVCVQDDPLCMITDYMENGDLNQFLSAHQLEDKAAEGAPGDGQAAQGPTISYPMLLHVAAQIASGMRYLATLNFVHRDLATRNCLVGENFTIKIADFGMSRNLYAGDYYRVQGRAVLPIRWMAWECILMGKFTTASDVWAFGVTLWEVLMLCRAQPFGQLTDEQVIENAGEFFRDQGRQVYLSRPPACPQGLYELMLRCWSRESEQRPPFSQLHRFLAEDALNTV
UniProt Q92630: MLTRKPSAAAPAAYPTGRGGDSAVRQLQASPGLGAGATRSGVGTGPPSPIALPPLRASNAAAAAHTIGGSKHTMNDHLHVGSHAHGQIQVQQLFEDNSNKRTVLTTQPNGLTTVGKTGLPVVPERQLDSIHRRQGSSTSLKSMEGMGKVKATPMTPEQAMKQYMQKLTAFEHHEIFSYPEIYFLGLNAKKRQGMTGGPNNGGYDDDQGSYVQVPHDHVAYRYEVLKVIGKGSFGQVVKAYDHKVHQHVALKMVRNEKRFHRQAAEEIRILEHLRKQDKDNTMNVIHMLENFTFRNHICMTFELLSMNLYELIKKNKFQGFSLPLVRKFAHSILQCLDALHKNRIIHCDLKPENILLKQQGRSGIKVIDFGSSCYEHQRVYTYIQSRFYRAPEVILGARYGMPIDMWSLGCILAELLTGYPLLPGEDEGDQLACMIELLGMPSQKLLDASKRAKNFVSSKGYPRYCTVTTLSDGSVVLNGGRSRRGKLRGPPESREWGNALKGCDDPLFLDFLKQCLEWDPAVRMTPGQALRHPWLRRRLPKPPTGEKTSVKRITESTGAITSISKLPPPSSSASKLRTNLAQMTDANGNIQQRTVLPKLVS
UniProt P29317, whole entry: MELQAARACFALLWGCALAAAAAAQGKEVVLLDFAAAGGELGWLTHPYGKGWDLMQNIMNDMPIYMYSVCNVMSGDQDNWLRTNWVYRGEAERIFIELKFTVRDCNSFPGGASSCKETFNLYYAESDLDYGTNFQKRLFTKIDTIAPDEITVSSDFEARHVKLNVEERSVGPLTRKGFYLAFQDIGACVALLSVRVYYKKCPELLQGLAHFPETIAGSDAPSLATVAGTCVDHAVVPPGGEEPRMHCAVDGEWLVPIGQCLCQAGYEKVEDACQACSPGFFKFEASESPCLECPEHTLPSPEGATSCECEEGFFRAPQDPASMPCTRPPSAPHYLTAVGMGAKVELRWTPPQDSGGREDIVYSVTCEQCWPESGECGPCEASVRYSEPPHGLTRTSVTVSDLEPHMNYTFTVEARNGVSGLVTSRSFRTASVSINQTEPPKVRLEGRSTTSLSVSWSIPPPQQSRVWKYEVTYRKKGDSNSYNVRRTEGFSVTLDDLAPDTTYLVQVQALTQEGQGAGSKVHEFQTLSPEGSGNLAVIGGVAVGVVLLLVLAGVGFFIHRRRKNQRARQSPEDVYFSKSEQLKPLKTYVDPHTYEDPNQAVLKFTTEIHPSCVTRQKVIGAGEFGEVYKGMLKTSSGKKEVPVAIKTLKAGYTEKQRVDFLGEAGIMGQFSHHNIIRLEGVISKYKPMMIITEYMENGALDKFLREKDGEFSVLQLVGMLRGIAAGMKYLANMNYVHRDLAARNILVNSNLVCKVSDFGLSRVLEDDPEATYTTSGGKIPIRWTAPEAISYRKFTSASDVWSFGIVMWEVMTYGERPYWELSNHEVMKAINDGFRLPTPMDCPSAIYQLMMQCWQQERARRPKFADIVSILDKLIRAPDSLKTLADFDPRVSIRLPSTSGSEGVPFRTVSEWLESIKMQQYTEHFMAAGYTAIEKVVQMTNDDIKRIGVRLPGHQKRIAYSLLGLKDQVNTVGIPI
UniProt Q15303, whole entry R711C: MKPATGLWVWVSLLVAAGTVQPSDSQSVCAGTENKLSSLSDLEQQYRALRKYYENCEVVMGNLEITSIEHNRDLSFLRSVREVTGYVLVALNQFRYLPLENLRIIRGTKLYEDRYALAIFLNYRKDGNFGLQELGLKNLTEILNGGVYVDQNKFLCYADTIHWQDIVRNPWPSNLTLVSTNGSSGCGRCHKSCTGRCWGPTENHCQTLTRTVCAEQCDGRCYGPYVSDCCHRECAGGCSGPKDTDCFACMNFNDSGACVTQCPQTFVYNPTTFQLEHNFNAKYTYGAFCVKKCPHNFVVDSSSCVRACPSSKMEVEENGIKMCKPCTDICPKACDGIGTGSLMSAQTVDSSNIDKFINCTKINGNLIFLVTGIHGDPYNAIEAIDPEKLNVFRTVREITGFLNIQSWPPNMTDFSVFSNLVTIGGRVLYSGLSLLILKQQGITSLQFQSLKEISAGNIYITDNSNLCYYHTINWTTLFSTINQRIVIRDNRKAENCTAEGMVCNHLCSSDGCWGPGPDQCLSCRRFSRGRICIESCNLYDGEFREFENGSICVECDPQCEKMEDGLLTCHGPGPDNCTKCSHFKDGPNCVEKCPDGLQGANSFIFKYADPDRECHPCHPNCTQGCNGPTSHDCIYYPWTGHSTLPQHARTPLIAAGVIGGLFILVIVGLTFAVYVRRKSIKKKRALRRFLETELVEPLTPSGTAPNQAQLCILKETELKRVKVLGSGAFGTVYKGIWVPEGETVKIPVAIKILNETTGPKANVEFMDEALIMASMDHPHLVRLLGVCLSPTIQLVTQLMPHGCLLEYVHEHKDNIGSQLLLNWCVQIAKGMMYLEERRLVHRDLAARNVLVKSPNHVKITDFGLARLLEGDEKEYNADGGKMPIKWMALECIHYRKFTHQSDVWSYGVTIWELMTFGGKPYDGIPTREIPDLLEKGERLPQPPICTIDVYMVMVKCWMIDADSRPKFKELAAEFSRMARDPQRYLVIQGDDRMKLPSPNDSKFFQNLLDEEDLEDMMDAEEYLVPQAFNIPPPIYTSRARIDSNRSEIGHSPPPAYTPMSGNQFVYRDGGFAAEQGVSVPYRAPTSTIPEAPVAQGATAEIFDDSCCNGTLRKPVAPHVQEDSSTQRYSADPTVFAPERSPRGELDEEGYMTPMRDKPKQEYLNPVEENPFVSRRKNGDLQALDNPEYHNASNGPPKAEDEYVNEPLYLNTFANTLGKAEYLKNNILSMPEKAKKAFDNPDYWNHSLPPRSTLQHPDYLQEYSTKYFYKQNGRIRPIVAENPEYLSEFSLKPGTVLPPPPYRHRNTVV

Experiments:
Assay in all cases: kinase-Nluc reporter destabilization hit call (1 = scored as downregulated) (binary); higher = compound decreases kinase abundance
Details in all cases: K562; 2-18 h
CDK7 = CDK7 (UniProt P50613)
CDK9 = CDK9 (UniProt P50750)
CHEK2 = CHEK2 (UniProt O96017)
CSF1R = CSF1R (UniProt P07333)
CSK = CSK (UniProt P41240)
CSNK1A1 = CSNK1A1 (UniProt P48729)
CSNK1D = CSNK1D (UniProt P48730)
DDR1 = DDR1 (UniProt Q08345)
DYRK1B = DYRK1B (UniProt Q9Y463)
DYRK2 = DYRK2 (UniProt Q92630)
EGFR = EGFR (UniProt P00533)
EGFR_G719S = EGFR_G719S (UniProt P00533)
EGFR_G719S_T790M = EGFR_G719S_T790M (UniProt P00533)
EGFR_L718V = EGFR_L718V (UniProt P00533)
EGFR_L858R = EGFR_L858R (UniProt P00533)
EGFR_L861Q = EGFR_L861Q (UniProt P00533)
EGFR_T790M = EGFR_T790M (UniProt P00533)
EPHA2 = EPHA2 (UniProt P29317)
ERBB3 = ERBB3 (UniProt P21860)
[1] = target: ERBB4_R711C (clone: ERBB4_mut) (UniProt Q15303)

Measured: kinase-Nluc reporter destabilization hit call

O=C(O)c1cc(O)c2c(c1)[C@@H]([C@H]1c3cc(C(=O)O)cc(O)c3C(=O)c3c(O[C@@H]4O[C@H](CO)[C@@H](O)[C@H](O)[C@H]4O)cccc31)c1cccc(O[C@@H]3O[C@H](CO)[C@@H](O)[C@H](O)[C@H]3O)c1C2=O [Sennoside B] (2.5 µM)
inactive: CDK7 = 0 | CDK9 = 0 | CHEK2 = 0 | CSF1R 0 | CSK 0 | CSNK1A1 = 0 | CSNK1D 0 | DDR1 = 0 | DYRK1B 0 | DYRK2 = 0 | EGFR 0 | EGFR_G719S 0 | EGFR_G719S_T790M 0 | EGFR_L718V 0 | EGFR_L858R 0 | EGFR_L861Q 0 | EGFR_T790M 0 | EPHA2 = 0 | ERBB3 = 0 | [1] 0

CC(CCc1ccccn1)(CCc1ccccn1)C(=O)c1ccccc1 (10 µM)
inactive: CDK7 = 0 | CDK9 = 0 | CHEK2 = 0 | CSF1R 0 | CSK 0 | CSNK1A1 = 0 | CSNK1D 0 | DDR1 = 0 | DYRK1B 0 | DYRK2 = 0 | EGFR 0 | EGFR_G719S 0 | EGFR_G719S_T790M 0 | EGFR_L718V 0 | EGFR_L858R 0 | EGFR_L861Q 0 | EGFR_T790M 0 | EPHA2 = 0 | ERBB3 = 0 | [1] 0

Cn1cc(-c2cc3c(N4CCN(c5ncc([C@@](C)(N)c6ccc(F)cc6)cn5)CC4)ncnn3c2)cn1 [Avapritinib] (2.5 µM)
inactive: CDK7 = 0 | CDK9 = 0 | CHEK2 = 0 | CSF1R 0 | CSK 0 | CSNK1A1 = 0 | CSNK1D 0 | DDR1 = 0 | DYRK1B 0 | DYRK2 = 0 | EGFR 0 | EGFR_G719S 0 | EGFR_G719S_T790M 0 | EGFR_L718V 0 | EGFR_L858R 0 | EGFR_L861Q 0 | EGFR_T790M 0 | EPHA2 = 0 | ERBB3 = 0 | [1] 0

Cc1cnc(Nc2ccc(N3CCN(C)CC3)cc2)nc1Nc1cccc(S(=O)(=O)NC(C)(C)C)c1 (2.5 µM)
inactive: CDK7 = 0 | CDK9 = 0 | CHEK2 = 0 | CSF1R 0 | CSK 0 | CSNK1A1 = 0 | CSNK1D 0 | DDR1 = 0 | DYRK1B 0 | DYRK2 = 0 | EGFR 0 | EGFR_G719S 0 | EGFR_G719S_T790M 0 | EGFR_L718V 0 | EGFR_L858R 0 | EGFR_L861Q 0 | EGFR_T790M 0 | EPHA2 = 0 | ERBB3 = 0 | [1] 0

[O-][n+]1cccc(-c2nc3c(Cl)cccc3cc2[C@@H](Nc2ncnc3cccnc23)C(F)(F)F)c1 [Seletalisib] (10 µM)
inactive: CDK7 = 0 | CDK9 = 0 | CHEK2 = 0 | CSF1R 0 | CSK 0 | CSNK1A1 = 0 | CSNK1D 0 | DDR1 = 0 | DYRK1B 0 | DYRK2 = 0 | EGFR 0 | EGFR_G719S 0 | EGFR_G719S_T790M 0 | EGFR_L718V 0 | EGFR_L858R 0 | EGFR_L861Q 0 | EGFR_T790M 0 | EPHA2 = 0 | ERBB3 = 0 | [1] 0

N#Cc1ccc(-c2c(-c3ncn[nH]3)sc(N3CCOCC3)c2C#N)c(F)c1 (10 µM)
inactive: CDK7 = 0 | CDK9 = 0 | CHEK2 = 0 | CSF1R 0 | CSK 0 | CSNK1A1 = 0 | CSNK1D 0 | DDR1 = 0 | DYRK1B 0 | DYRK2 = 0 | EGFR 0 | EGFR_G719S 0 | EGFR_G719S_T790M 0 | EGFR_L718V 0 | EGFR_L858R 0 | EGFR_L861Q 0 | EGFR_T790M 0 | EPHA2 = 0 | ERBB3 = 0 | [1] 0

COc1nc(-c2cccc3c2OCCO3)ccc1Nc1ccc(CN(C)C)cc1 [RAS inhibitor Abd-7] (10 µM)
inactive: CDK7 = 0 | CDK9 = 0 | CHEK2 = 0 | CSF1R 0 | CSK 0 | CSNK1A1 = 0 | CSNK1D 0 | DDR1 = 0 | DYRK1B 0 | DYRK2 = 0 | EGFR 0 | EGFR_G719S 0 | EGFR_G719S_T790M 0 | EGFR_L718V 0 | EGFR_L858R 0 | EGFR_L861Q 0 | EGFR_T790M 0 | EPHA2 = 0 | ERBB3 = 0 | [1] 0

Cc1cc(C(C)Nc2ccccc2)c2nc(N3CCOCC3)cc(=O)n2c1 (stereo not given) (10 µM)
inactive: CDK7 = 0 | CDK9 = 0 | CHEK2 = 0 | CSF1R 0 | CSK 0 | CSNK1A1 = 0 | CSNK1D 0 | DDR1 = 0 | DYRK1B 0 | DYRK2 = 0 | EGFR 0 | EGFR_G719S 0 | EGFR_G719S_T790M 0 | EGFR_L718V 0 | EGFR_L858R 0 | EGFR_L861Q 0 | EGFR_T790M 0 | EPHA2 = 0 | ERBB3 = 0 | [1] 0

CC(=O)Nc1nc(C)c(-c2nc(N3CCCC(O)C3)no2)s1 (stereo not given) (10 µM)
inactive: CDK7 = 0 | CDK9 = 0 | CHEK2 = 0 | CSF1R 0 | CSK 0 | CSNK1A1 = 0 | CSNK1D 0 | DDR1 = 0 | DYRK1B 0 | DYRK2 = 0 | EGFR 0 | EGFR_G719S 0 | EGFR_G719S_T790M 0 | EGFR_L718V 0 | EGFR_L858R 0 | EGFR_L861Q 0 | EGFR_T790M 0 | EPHA2 = 0 | ERBB3 = 0 | [1] 0

CN(CC(=O)N(Cc1ccc(C2CCCCC2)cc1)c1ccc(C(=O)O)c(O)c1)S(=O)(=O)c1c(F)c(F)c(F)c(F)c1F (2.5 µM)
inactive: CDK7 = 0 | CDK9 = 0 | CHEK2 = 0 | CSF1R 0 | CSK 0 | CSNK1A1 = 0 | CSNK1D 0 | DDR1 = 0 | DYRK1B 0 | DYRK2 = 0 | EGFR 0 | EGFR_G719S 0 | EGFR_G719S_T790M 0 | EGFR_L718V 0 | EGFR_L858R 0 | EGFR_L861Q 0 | EGFR_T790M 0 | EPHA2 = 0 | ERBB3 = 0 | [1] 0

CC(=O)Nc1nc2ccc(-c3cnc(C)c(NC(=O)OC4CCCCC4)c3)cc2s1 (10 µM)
inactive: CDK7 = 0 | CDK9 = 0 | CHEK2 = 0 | CSF1R 0 | CSK 0 | CSNK1A1 = 0 | CSNK1D 0 | DDR1 = 0 | DYRK1B 0 | DYRK2 = 0 | EGFR 0 | EGFR_G719S 0 | EGFR_G719S_T790M 0 | EGFR_L718V 0 | EGFR_L858R 0 | EGFR_L861Q 0 | EGFR_T790M 0 | EPHA2 = 0 | ERBB3 = 0 | [1] 0

O=C(c1ccc(Nc2nccc(-c3cc4ccccc4s3)n2)cc1)N1CCC(N2CCCC2)CC1 (2.5 µM)
inactive: CDK7 = 0 | CDK9 = 0 | CHEK2 = 0 | CSF1R 0 | CSK 0 | CSNK1A1 = 0 | CSNK1D 0 | DDR1 = 0 | DYRK1B 0 | DYRK2 = 0 | EGFR 0 | EGFR_G719S 0 | EGFR_G719S_T790M 0 | EGFR_L718V 0 | EGFR_L858R 0 | EGFR_L861Q 0 | EGFR_T790M 0 | EPHA2 = 0 | ERBB3 = 0 | [1] 0

Arranged by molecular weight (descending): 3 of the compounds above
CN(CC(=O)N(Cc1ccc(C2CCCCC2)cc1)c1ccc(C(=O)O)c(O)c1)S(=O)(=O)c1c(F)c(F)c(F)c(F)c1F (2.5 µM)
inactive: CDK7 = 0 | CDK9 = 0 | CHEK2 = 0 | CSF1R 0 | CSK 0 | CSNK1A1 = 0 | CSNK1D 0 | DDR1 = 0 | DYRK1B 0 | DYRK2 = 0 | EGFR 0 | EGFR_G719S 0 | EGFR_G719S_T790M 0 | EGFR_L718V 0 | EGFR_L858R 0 | EGFR_L861Q 0 | EGFR_T790M 0 | EPHA2 = 0 | ERBB3 = 0 | [1] 0

O=C(c1ccc(Nc2nccc(-c3cc4ccccc4s3)n2)cc1)N1CCC(N2CCCC2)CC1 (2.5 µM)
inactive: CDK7 = 0 | CDK9 = 0 | CHEK2 = 0 | CSF1R 0 | CSK 0 | CSNK1A1 = 0 | CSNK1D 0 | DDR1 = 0 | DYRK1B 0 | DYRK2 = 0 | EGFR 0 | EGFR_G719S 0 | EGFR_G719S_T790M 0 | EGFR_L718V 0 | EGFR_L858R 0 | EGFR_L861Q 0 | EGFR_T790M 0 | EPHA2 = 0 | ERBB3 = 0 | [1] 0

Cc1cc(C(C)Nc2ccccc2)c2nc(N3CCOCC3)cc(=O)n2c1 (stereo not given) (10 µM)
inactive: CDK7 = 0 | CDK9 = 0 | CHEK2 = 0 | CSF1R 0 | CSK 0 | CSNK1A1 = 0 | CSNK1D 0 | DDR1 = 0 | DYRK1B 0 | DYRK2 = 0 | EGFR 0 | EGFR_G719S 0 | EGFR_G719S_T790M 0 | EGFR_L718V 0 | EGFR_L858R 0 | EGFR_L861Q 0 | EGFR_T790M 0 | EPHA2 = 0 | ERBB3 = 0 | [1] 0

More entries follow:

COc1ccc2c(=O)c(-c3ccccc3)coc2c1 [7-Methoxyisoflavone] (10 µM)
inactive: CDK7 = 0 | CDK9 = 0 | CHEK2 = 0 | CSF1R 0 | CSK 0 | CSNK1A1 = 0 | CSNK1D 0 | DDR1 = 0 | DYRK1B 0 | DYRK2 = 0 | EGFR 0 | EGFR_G719S 0 | EGFR_G719S_T790M 0 | EGFR_L718V 0 | EGFR_L858R 0 | EGFR_L861Q 0 | EGFR_T790M 0 | EPHA2 = 0 | ERBB3 = 0 | [1] 0

C[C@@H]1CCc2ncc(F)cc2[C@H]2CCCN2c2ccn3ncc(c3n2)C(=O)N1 [Selitrectinib] (10 µM)
inactive: CDK7 = 0 | CDK9 = 0 | CHEK2 = 0 | CSF1R 0 | CSK 0 | CSNK1A1 = 0 | CSNK1D 0 | DDR1 = 0 | DYRK1B 0 | DYRK2 = 0 | EGFR 0 | EGFR_G719S 0 | EGFR_G719S_T790M 0 | EGFR_L718V 0 | EGFR_L858R 0 | EGFR_L861Q 0 | EGFR_T790M 0 | EPHA2 = 0 | ERBB3 = 0 | [1] 0

CCCNC(=O)c1cn2ncnc(Nc3cc(C(=O)NC4CC4)ccc3C)c2c1C (10 µM)
inactive: CDK7 = 0 | CDK9 = 0 | CHEK2 = 0 | CSF1R 0 | CSK 0 | CSNK1A1 = 0 | CSNK1D 0 | DDR1 = 0 | DYRK1B 0 | DYRK2 = 0 | EGFR 0 | EGFR_G719S 0 | EGFR_G719S_T790M 0 | EGFR_L718V 0 | EGFR_L858R 0 | EGFR_L861Q 0 | EGFR_T790M 0 | EPHA2 = 0 | ERBB3 = 0 | [1] 0

C[C@H]1Cc2ccccc2N1C(=O)Cc1nc(N2CCOCC2)cc(=O)[nH]1 (2.5 µM)
inactive: CDK7 = 0 | CDK9 = 0 | CHEK2 = 0 | CSF1R 0 | CSK 0 | CSNK1A1 = 0 | CSNK1D 0 | DDR1 = 0 | DYRK1B 0 | DYRK2 = 0 | EGFR 0 | EGFR_G719S 0 | EGFR_G719S_T790M 0 | EGFR_L718V 0 | EGFR_L858R 0 | EGFR_L861Q 0 | EGFR_T790M 0 | EPHA2 = 0 | ERBB3 = 0 | [1] 0
